# Results of single-concentration screens

Chains of the proteins cited; added tags and fusions are not shown. Residues count along the entry.
UniProt A4I591, 1-473: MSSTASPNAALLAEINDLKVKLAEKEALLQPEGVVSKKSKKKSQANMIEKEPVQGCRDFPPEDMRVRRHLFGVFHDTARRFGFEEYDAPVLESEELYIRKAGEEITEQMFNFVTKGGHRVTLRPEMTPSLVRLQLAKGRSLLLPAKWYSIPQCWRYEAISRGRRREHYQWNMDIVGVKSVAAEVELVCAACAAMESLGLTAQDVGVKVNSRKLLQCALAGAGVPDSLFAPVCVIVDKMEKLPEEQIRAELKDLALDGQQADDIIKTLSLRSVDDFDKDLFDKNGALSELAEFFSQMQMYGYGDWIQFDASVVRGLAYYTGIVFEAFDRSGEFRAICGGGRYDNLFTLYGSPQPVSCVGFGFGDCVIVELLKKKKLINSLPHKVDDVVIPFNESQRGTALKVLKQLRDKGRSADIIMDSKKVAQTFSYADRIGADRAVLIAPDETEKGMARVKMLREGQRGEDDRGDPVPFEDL
UniProt P9WFT3, whole entry: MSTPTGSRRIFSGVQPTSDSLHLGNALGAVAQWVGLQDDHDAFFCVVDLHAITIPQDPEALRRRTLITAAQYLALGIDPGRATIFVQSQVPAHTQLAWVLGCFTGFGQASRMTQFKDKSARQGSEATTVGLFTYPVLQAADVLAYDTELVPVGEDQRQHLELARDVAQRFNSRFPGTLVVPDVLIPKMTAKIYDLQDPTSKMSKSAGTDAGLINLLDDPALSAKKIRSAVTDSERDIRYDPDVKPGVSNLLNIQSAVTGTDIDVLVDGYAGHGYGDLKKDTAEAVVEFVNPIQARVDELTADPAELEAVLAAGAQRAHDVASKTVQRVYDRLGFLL

The values are deposited in ChEMBL (CHEMBL3988442, “University of Dundee, Small-Polar-MMV Screening Library” (2021)).

LiHisRS: 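Histidine-tRNA ligase, Leishmania infantum (UniProt A4I591). Enzyme assay of histidyl-tRNA synthetase; the read-out is not stated. Tested at 30 µM. Direction is inferred from retests: higher values go with stronger inhibition. The assay is labelled LdHisRS but filed under L. infantum. About 69,000 compounds were tested under these conditions; 0.6% (about 410) showed 50% or more at least once.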
MtTrpRS: 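Enzyme assay of tryptophanyl-tRNA synthetase; the read-out is not stated. Target: Tryptophan-tRNA ligase, Mycobacterium tuberculosis (UniProt P9WFT3). Tested at 10 µM. Direction is not recorded; retested compounds ran higher, which suggests that high means inhibition. Size under these conditions: about 65,000 compounds, about 64 of them at 50% or above in at least one test.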

Each number is a percent effect as filed. The controls that fix the scale are not given in the record; negative values are as filed. The compounds are a random part of those screened.

* COc1ccc(CCNCc2ccco2)cc1OC | LiHisRS: 3.279%; MtTrpRS: 2.205%
* Cc1cccnc1NCCNC(=O)c1cnc(-c2cccs2)nc1O | LiHisRS: 16.13%; MtTrpRS: -2.402%
* CN1CSC[C@H]1C(=O)N1CCN(Cc2cccc(Cl)c2)CC1 | LiHisRS: 13.7%; MtTrpRS: 0.7435%
* CNC(=O)C1(CCCc2cnccn2)CCN1Cc1ccc(C)cc1 (stereo not drawn) | LiHisRS: 14.49%; MtTrpRS: -4.285%
* CCc1nc(N2CCCC(CO)(CCOC)C2)ncc1C (stereo not drawn) | LiHisRS: 11.29%; MtTrpRS: 2.938%
* CCc1ccc(C(=O)N2CCC(Nc3ccc(C)nn3)CC2)o1 | LiHisRS: 17.24%; MtTrpRS: -1.013%
* Cc1cccc(CN2CCN(c3ncnc4[nH]cnc34)CC2CCO)n1 (stereo not drawn) | LiHisRS: 16.24%; MtTrpRS: 21.27%
* Cc1ccc(C(=O)NC2CCOc3ccccc32)cc1S(C)(=O)=O (stereo not drawn) | LiHisRS: 16.44%; MtTrpRS: 21.54%
* O=C(c1ncccn1)N1C[C@@H]2CC[C@H](Oc3cccc(F)c3)[C@@H]2C1 | LiHisRS: 16%
* Cc1ncc2c(n1)CN(CCCc1ccccc1)CC2 | LiHisRS: 16.07%; MtTrpRS: -1.557%
* COCCCN1CCC(CNc2nccc(-c3cnn(C)c3)n2)C1 (stereo not drawn) | LiHisRS: 7.018%; MtTrpRS: -3.761%
* Cc1cc2occ(CC(=O)N3CCC4(CCCN(C)C4=O)C3)c2cc1Cl (stereo not drawn) | LiHisRS: 19.2%; MtTrpRS: 3.612%
* CC1CCN(C(=O)[C@@H]2C[C@@H]3CCN(CC4CCOCC4)C[C@@H]3O2)CC1 | LiHisRS: 16%; MtTrpRS: -3.111%
* COc1cccc(CC(=O)N2CCC(c3ccn4nccc4n3)CC2)c1 | LiHisRS: 5.369%; MtTrpRS: -6.788%
* Cc1cnn(CC2CCCCN2C(=O)c2ccc3[nH]cnc3c2)c1 (stereo not drawn) | LiHisRS: 4.425%; MtTrpRS: -3.135%
* CN(Cc1ccco1)C1CCC12CCN(C(=O)c1ccco1)CC2 (stereo not drawn) | LiHisRS: 25.24%; MtTrpRS: -1.051%
* COc1ccc(-c2nnc(SC(C)C(N)=O)[nH]2)c(OC)c1 (stereo not drawn) | LiHisRS: 13.39%; MtTrpRS: -1.376%
* O=C1CN(Cc2nnc(-c3ccccc3Br)o2)CCN1 | LiHisRS: 24.04%; MtTrpRS: 0.5687%
* COc1ncccc1CN1C[C@@H]2CN(c3ncccn3)C[C@@H]2C1 | LiHisRS: 1.923%
* COCC(O)CN1CCC(=O)N(CC2CC2)Cc2ccccc21 (stereo not drawn) | LiHisRS: 8.163%
* COCc1noc(Cn2c(=O)[nH]c3ccccc32)n1 | LiHisRS: 6.522%; MtTrpRS: 1.125%
* CCC(O)CN1CCN(C(=O)c2cnc3n[nH]c(C)c3c2)CC1 (stereo not drawn) | LiHisRS: 7.895%; MtTrpRS: -1.827%
* Clc1ccccc1-c1nnc(CN2CCCC2Cn2cncn2)o1 (stereo not drawn) | LiHisRS: 21.15%; MtTrpRS: 7.252%
* CC(=O)N1CCCC(c2ccnc(N(C)C)n2)C1 (stereo not drawn) | LiHisRS: 8%
* CCC1CN(C(=O)c2ccccc2N2CCOCC2)CCN1C(C)C (stereo not drawn) | LiHisRS: 6.849%; MtTrpRS: 7.309%
* CCc1ccccc1OC1CN(C(=O)c2ccsc2)C1 | LiHisRS: 20%; MtTrpRS: -2.387%
* CNC(=O)COC(=O)c1cccc(-n2ccc(C(F)(F)F)n2)c1 | LiHisRS: 11.11%; MtTrpRS: -0.6536%
* CC(C)n1[nH]c(=O)c2c1NC(=O)CC2c1ccc(C#N)cc1 (stereo not drawn) | LiHisRS: 0%; MtTrpRS: -3.956%
* Cc1ccc(OCCC(=O)N(C)CC(=O)Nc2cc(C)on2)c(C)c1 | LiHisRS: 1.333%; MtTrpRS: 9.637%
* c1ccc(-c2nc3c(c(NCCCn4cncn4)n2)CCNCC3)nc1 | LiHisRS: 21.28%; MtTrpRS: 3.363%
* COc1ccccc1OCC(=O)NS(=O)(=O)c1cc(F)ccc1F | LiHisRS: 9.615%; MtTrpRS: -1.316%
* c1cnc(N2CCN(C3CCC[C@@H]4CN(CC5CC5)C[C@H]34)CC2)nc1 (stereo partly drawn) | LiHisRS: 2.857%; MtTrpRS: -1.627%
* CC1(C)CN(C(=O)Nc2cc(C(F)(F)F)c[nH]c2=O)CCO1 | LiHisRS: 15.96%; MtTrpRS: 3.226%
* Cc1cnn(CC2CCCN2CC(=O)NCc2ccccn2)c1 (stereo not drawn) | LiHisRS: -16.44%; MtTrpRS: -6.446%
* Fc1ccc(F)c(CN2CCC(c3n[nH]c4ncccc34)CC2)c1 | LiHisRS: 9.375%
* CNS(=O)(=O)CCn1cc(-c2ccc(OC)c(OC)c2)nn1 | LiHisRS: 6.557%; MtTrpRS: -1.26%
* CNc1cccc(C2CN(C(=O)c3c[nH]cn3)CCO2)n1 (stereo not drawn) | LiHisRS: 9.929%; MtTrpRS: -8.104%
* Cc1nn(C)cc1-c1ccnc(N2CCCN(CC(C)C)CC2)n1 | LiHisRS: 26.6%; MtTrpRS: 1.806%
* CC(C)=CCN1CC2(CCN(Cc3c(F)cccc3F)CC2)CC1=O | LiHisRS: 17.74%; MtTrpRS: -5.51%
* CC(C(=O)Nc1ccnn1C(C)C)N1CCN(Cc2ccccc2)CC1 (stereo not drawn) | LiHisRS: 6.061%; MtTrpRS: -5.449%
* CN(CC1(O)CCCN(c2ccccn2)C1)C(=O)CCc1cccs1 (stereo not drawn) | LiHisRS: 14%

Some entries from above, unchanged:

compound,LiHisRS,MtTrpRS
CNS(=O)(=O)CCn1cc(-c2ccc(OC)c(OC)c2)nn1,6.557%,-1.26%
CNC(=O)COC(=O)c1cccc(-n2ccc(C(F)(F)F)n2)c1,11.11%,-0.6536%
CC1CCN(C(=O)[C@@H]2C[C@@H]3CCN(CC4CCOCC4)C[C@@H]3O2)CC1,16%,-3.111%